Reference: PubChem BioAssay AID330 (DTP/NCI, 2004)
The list is a part of this screen's results and no random one: it gathers tests that were run many times, whatever their T/C, doses with no T/C, and many T/C values between a quarter and a half above the control. Further doses and runs are listed elsewhere. T/C: endpoint of the treated group in % of that of the vehicle group. Some entries give survivors of the animals treated and no T/C: the source files T/C as zero there, which appears to mark a toxic dose or a test without result, not a measured value. Some survivor counts are full or nearly so, which does not show that the dose was tolerated: the source hardly ever lists a survival T/C far under the control, and the zero likely stands for such cases as well. Survivors were counted at the toxicity check, usually on the fifth day, unless a day is given; later deaths do not show. Schedules are NCI's codes, taken here to give the interval after Q, in days (D) or hours (H), and the number of doses after X. Some entries hold several experiments; their values stand side by side, smallest first. Where survival is the endpoint, the PubChem record calls one and a half times the control and up active, and a quarter to a half above the control has no call in these data; cut-offs in other NCI protocols can differ. Some T/C values are followed by the survivors on the day toxicity was checked, most often the fifth; without a count, all were alive then.

System: P388 leukemia ip, CD2F1 mice, survival T/C
Test: NCI In Vivo Anticancer Drug Screen. Data for tumor model P388 Leukemia (intraperitoneal) in CD2F1 (CDF1) mice
Details: T/C endpoint: median survival time, higher T/C = longer survival
[1] = dose: 100.0 mg/kg/injection, schedule: Q01DX009 (ip), vehicle: saline
[2] = dose: 200.0 mg/kg/injection, schedule: Q01DX009 (ip), vehicle: Klucel (hydroxypropylcellulose) (HPC)
[3] = dose: 100.0 mg/kg/injection, schedule: Q01DX009 (ip), vehicle: saline with Tween-80
[4] = dose: 200.0 mg/kg/injection, schedule: Q01DX009 (ip), vehicle: saline with Tween-80
[5] = dose: 50.0 mg/kg/injection, schedule: Q01DX009 (ip), vehicle: Klucel (hydroxypropylcellulose) (HPC)

CNC(=O)OCC1=C(COC(=O)NC)C2OC1C(C(=O)OC)=C2C(=O)OC
survivor count (dose: 6.25 mg/kg/injection, schedule: Q01DX009 (ip), vehicle: distilled water + Tween-80): 6 of 6
survivor count (dose: 12.5 mg/kg/injection, schedule: Q01DX009 (ip), vehicle: distilled water + Tween-80): 5 of 6
survivor count (dose: 25.0 mg/kg/injection, schedule: Q01DX009 (ip), vehicle: distilled water + Tween-80): 3 of 6 and 5 of 6
survivor count (dose: 50.0 mg/kg/injection, schedule: Q01DX009 (ip), vehicle: distilled water + Tween-80): 2 of 6
survivor count (dose: 100.0 mg/kg/injection, schedule: Q01DX009 (ip), vehicle: distilled water + Tween-80): 0 of 6
survivor count (dose: 200.0 mg/kg/injection, schedule: Q01DX009 (ip), vehicle: distilled water + Tween-80): 0 of 6

CC(=O)Nc1c(Cl)c(Cl)c2c(c1Cl)Cc1cc(Cl)ccc1-2
survivor count (dose: 12.5 mg/kg/injection, schedule: Q01DX009 (ip), vehicle: suspension in saline): 6 of 6
survivor count [1]: 5 of 6

NOCCCCCON
survivor count [2]: 2 of 5

CCOC(=O)CNC(=O)NNC(=O)OCC
survivor count (dose: 25.0 mg/kg/injection, schedule: Q01DX009 (ip), vehicle: saline): 6 of 6

O=NN(CCCl)C(=O)OCc1ccccc1
survivor count (dose: 50.0 mg/kg/injection, schedule: Q01DX001 (ip), vehicle: saline with Tween-80): 6 of 6

O=P(c1ccccc1)(c1ccccc1)c1ccccc1.O=P(c1ccccc1)(c1ccccc1)c1ccccc1.O=P(c1ccccc1)(c1ccccc1)c1ccccc1.O=P(c1ccccc1)(c1ccccc1)c1ccccc1.[O-][Cl+3]([O-])([O-])O.[Zn+2]
survivor count (dose: 200.0 mg/kg/injection, schedule: Q01DX001 (ip), vehicle: saline with Tween-80): 2 of 6 and 3 of 6
survivor count (dose: 400.0 mg/kg/injection, schedule: Q01DX001 (ip), vehicle: saline with Tween-80): 0 of 6

CN1CCN(CCCN(c2cccc(C(F)(F)F)c2)c2cccc(C(F)(F)F)c2)CC1
survivor count (dose: 100.0 mg/kg/injection, schedule: Q01DX001 (ip), vehicle: Klucel (hydroxypropylcellulose) (HPC)): 0 of 6
survivor count (dose: 200.0 mg/kg/injection, schedule: Q01DX001 (ip), vehicle: Klucel (hydroxypropylcellulose) (HPC)): 0 of 6
survivor count (dose: 400.0 mg/kg/injection, schedule: Q01DX001 (ip), vehicle: Klucel (hydroxypropylcellulose) (HPC)): 0 of 6

COC(=O)[C@@]12OC[C@@]34[C@@H](CC5=C(C)C(=O)C(O)=C[C@]5(C)[C@H]3[C@@H](O)[C@@H]1O)OC(=O)[C@H](OC(=O)/C=C(\C)C(C)(C)OC(C)=O)[C@@H]24
T/C (dose: 1.0 mg/kg/injection, schedule: Q01DX009 (ip), vehicle: saline + alcohol): 126 and 135 % of control
T/C (dose: 2.0 mg/kg/injection, schedule: Q01DX009 (ip), vehicle: saline + alcohol): 135 and 148 % of control

O=NN(CCCl)C(=O)Nc1cc(Cl)ccc1O
T/C (dose: 33.0 mg/kg/injection, schedule: Q04DX003 (ip), vehicle: saline with Tween-80): 131 % of control
T/C (dose: 50.0 mg/kg/injection, schedule: Q04DX003 (ip), vehicle: saline with Tween-80): 145 % of control
T/C (dose: 75.0 mg/kg/injection, schedule: Q04DX003 (ip), vehicle: saline with Tween-80): 145 % of control
T/C [3]: 145 % of control
T/C (dose: 100.0 mg/kg/injection, schedule: Q04DX003 (ip), vehicle: saline with Tween-80): 131 % of control
survivor count [4]: 2 of 6
T/C (dose: 200.0 mg/kg/injection, schedule: Q04DX003 (ip), vehicle: saline with Tween-80): 136 % of control [5 of 6 alive]

CC(=O)Oc1cc2c(=O)oc3c(OC(C)=O)c(OC(C)=O)c(OC(C)=O)c4c(=O)oc(c1OC(C)=O)c2c34
survivor count (dose: 25.0 mg/kg/injection, schedule: Q01DX009 (ip), vehicle: Klucel (hydroxypropylcellulose) (HPC)): 6 of 6
survivor count [5]: 6 of 6
survivor count [1]: 6 of 6
survivor count (dose: 400.0 mg/kg/injection, schedule: Q01DX009 (ip), vehicle: Klucel (hydroxypropylcellulose) (HPC)): 5 of 6

NCC1CC2CCC1CC2 (centres undefined)
survivor count (dose: 100.0 mg/kg/injection, schedule: Q01DX005 (ip), vehicle: saline with Tween-80): 4 of 6
survivor count (dose: 200.0 mg/kg/injection, schedule: Q01DX005 (ip), vehicle: saline with Tween-80): 0 of 6

CCc1c2cc(OC)c(OC)cc2cc2c3cc(OC)c(OC)cc3cc[n+]12 (tested in a mixture with another compound)
T/C (dose: 13.2 mg/kg/injection, schedule: Q04DX003 (ip), vehicle: saline): 125 % of control
T/C (dose: 30.0 mg/kg/injection, schedule: Q04DX003 (ip), vehicle: saline): 140 % of control
T/C (dose: 50.0 mg/kg/injection, schedule: Q04DX003 (ip), vehicle: saline): 139 % of control
T/C [3]: 148 % of control
T/C (dose: 100.0 mg/kg/injection, schedule: Q04DX003 (ip), vehicle: saline): 139 % of control
T/C (dose: 132.0 mg/kg/injection, schedule: Q04DX003 (ip), vehicle: saline): 141 % of control

COc1ccc(/C=C2\CCc3cc(OC)ccc3C2=O)cc1
survivor count [5]: 6 of 6
survivor count (dose: 100.0 mg/kg/injection, schedule: Q01DX009 (ip), vehicle: Klucel (hydroxypropylcellulose) (HPC)): 6 of 6
survivor count [2]: 6 of 6

O=C(C1=C(NCc2ccccc2)CCCC1)c1ccccc1
survivor count [1]: 3 of 6
survivor count (dose: 200.0 mg/kg/injection, schedule: Q01DX009 (ip), vehicle: saline): 2 of 6

O=C(CCCN1CCN(c2cc3ccccc3cn2)CC1)c1ccc(F)cc1
survivor count (dose: 100.0 mg/kg/injection, schedule: Q01DX005 (ip), vehicle: Klucel (hydroxypropylcellulose) (HPC)): 4 of 6
survivor count (dose: 200.0 mg/kg/injection, schedule: Q01DX005 (ip), vehicle: Klucel (hydroxypropylcellulose) (HPC)): 1 of 6

Cc1nn(-c2ccccc2)nc1C(=O)Nc1ccccc1C(=O)NCC1CC1
survivor count (dose: 60.0 mg/kg/injection, schedule: Q01DX005 (ip), vehicle: saline with Tween-80): 6 of 6

COc1c2occc2c(NC(=O)CCl)c2ccc(=O)oc12
survivor count (dose: 400.0 mg/kg/injection, schedule: Q04DX002 (ip), vehicle: saline with Tween-80): 0 of 6

CC1=C[P+](c2ccccc2)(c2ccccc2)C=C(c2ccccc2)O1
T/C (dose: 1.56 mg/kg/injection, schedule: Q01DX005 (ip), vehicle: saline): 128 % of control
T/C (dose: 3.12 mg/kg/injection, schedule: Q01DX005 (ip), vehicle: saline): 143 % of control
survivor count (dose: 12.5 mg/kg/injection, schedule: Q01DX005 (ip), vehicle: saline): 2 of 5 and 4 of 5
survivor count (dose: 25.0 mg/kg/injection, schedule: Q01DX005 (ip), vehicle: saline): 3 of 5 and 4 of 5
survivor count (dose: 50.0 mg/kg/injection, schedule: Q01DX005 (ip), vehicle: saline): 0 of 5

CN(C)c1ccc2nc(/C=N/NC(N)=S)ccc2c1
survivor count (dose: 400.0 mg/kg/injection, schedule: Q04DX002 (ip), vehicle: distilled water + Tween-80 + alcohol): 0 of 6

CCOC(=S)SCC(=O)C1(O)Cc2c(O)c3c(c(O)c2C(OC2CC(N)C(O)C(C)O2)C1)C(=O)c1c(OC)cccc1C3=O (centres undefined)
T/C (dose: 6.25 mg/kg/injection, schedule: Q01DX009 (ip), vehicle: other): 131 % of control
survivor count (dose: 12.5 mg/kg/injection, schedule: Q01DX009 (ip), vehicle: other): 4 of 6
survivor count (dose: 25.0 mg/kg/injection, schedule: Q01DX009 (ip), vehicle: other): 0 of 6
survivor count (dose: 300.0 mg/kg/injection, schedule: Q04DX003 (ip), vehicle: other): 1 of 3

CSC(=S)N/N=C/c1ccccn1
survivor count (dose: 50.0 mg/kg/injection, schedule: Q01DX009 (ip), vehicle: saline with Tween-80): 6 of 6
survivor count [3]: 2 of 6 and 5 of 6
survivor count [4]: 4 of 6
